These results are taken from PubChem BioAssay AID256 (DTP/NCI, 2004).

The list shows only some results of the screen, not a fair sample: it is rich in T/C values a quarter to a half above the control, in often repeated tests (any T/C) and in doses without a T/C. Further doses and runs are listed elsewhere. T/C gives the treated animals as a percentage of the vehicle group. Some entries give survivors of the animals treated and no T/C: the source files T/C as zero there, which appears to mark a toxic dose or a test without result, not a measured value. Some survivor counts are full or nearly so, which does not show that the dose was tolerated: the source hardly ever lists a survival T/C far under the control, and the zero likely stands for such cases as well. Survivors were counted at the toxicity check, usually on the fifth day, unless a day is given; later deaths do not show. Schedules are NCI's codes, taken here to give the interval after Q, in days (D) or hours (H), and the number of doses after X. Some structures stand for samples that the source files as different forms (salt, stereo form or complex); doses refer to the form tested. Some entries were tested several times; the values are given in rising order. Brackets with × give the number of equal values in this list. Where survival is the endpoint, this PubChem deposit counts one and a half times the control or more as active, and values a quarter to a half above the control carry no call in these data; other NCI protocols may use other cut-offs. Some T/C values carry the count of animals alive at the toxicity check (mostly the fifth day); without a count, all were alive then.

The assay relates to CD2F1 mice, L1210 leukemia ip, survival T/C. Put plainly: NCI In Vivo Anticancer Drug Screen. Data for tumor model L1210 Leukemia (intraperitoneal) in CD2F1 (CDF1) mice. The conditions noted are these: higher T/C = longer survival. The essentials:
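In this screen, transplantable tumors were grown in mice given either the compound or its vehicle. Results were expressed as the treated measurement relative to the control measurement.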

Setting [1] is: T/C endpoint: mean survival time, dose: 10.0 mg/kg/injection, schedule: Q01DX009 (ip), vehicle: saline.
The mark [2] stands for this setting: T/C endpoint: mean survival time, dose: 100.0 mg/kg/injection, schedule: Q01DX001 (ip), vehicle: other.
The mark [3] stands for this setting: T/C endpoint: mean survival time, dose: 100.0 mg/kg/injection, schedule: Q04DX002 (ip), vehicle: other.
Where [4] appears, read: T/C endpoint: mean survival time, dose: 100.0 mg/kg/injection, schedule: Q01DX009 (ip), vehicle: saline with Tween-80.
Where [5] appears, read: T/C endpoint: mean survival time, dose: 200.0 mg/kg/injection, schedule: Q01DX009 (ip), vehicle: saline with Tween-80.
The mark [6] stands for this setting: T/C endpoint: mean survival time, dose: 100.0 mg/kg/injection, schedule: Q01DX001 (ip), vehicle: saline with Tween-80.
Where [7] appears, read: T/C endpoint: mean survival time, dose: 200.0 mg/kg/injection, schedule: Q01DX001 (ip), vehicle: saline with Tween-80.
The mark [8] stands for this setting: T/C endpoint: mean survival time, dose: 400.0 mg/kg/injection, schedule: Q01DX001 (ip), vehicle: saline with Tween-80.
[9] abbreviates: T/C endpoint: mean survival time, dose: 3.13 mg/kg/injection, schedule: Q01DX009 (ip), vehicle: Klucel (hydroxypropylcellulose) (HPC).

For `O=C1CCC2(CCCCC2)N1`, the survivor count runs as follows: (T/C endpoint: mean survival time, dose: 5.0 mg/kg/injection, schedule: Q01DX009 (ip), vehicle: saline) 6 of 6; under setting [1], 6 of 6; (T/C endpoint: mean survival time, dose: 20.0 mg/kg/injection, schedule: Q01DX009 (ip), vehicle: saline) 1 of 6; (T/C endpoint: mean survival time, dose: 25.0 mg/kg/injection, schedule: Q01DX009 (ip), vehicle: saline) 0 of 6; (T/C endpoint: mean survival time, dose: 50.0 mg/kg/injection, schedule: Q01DX009 (ip), vehicle: saline) 0 of 6.
Regarding `Nc1n[nH]c(=S)s1`, for the setting “T/C endpoint: mean survival time, dose: 400.0 mg/kg/injection, schedule: Q04DX002 (ip), vehicle: saline with Tween-80”, the survivor count is 1 of 3.
Consider `CN(C)N=Nc1ccc(SC#N)cc1C(N)=O`, for which the survivor count (T/C endpoint: mean survival time, dose: 300.0 mg/kg/injection, schedule: Q01DX009 (ip), vehicle: Klucel (hydroxypropylcellulose) (HPC)) was 2 of 6 and 3 of 6.
Consider `CCOC/C(O)=C(\C#N)c1ccc(Cl)cc1`, for which the survivor count under setting [2] is recorded as 3 of 6; the survivor count under setting [3] is 1 of 3 and 4 of 6; the survivor count (T/C endpoint: mean survival time, dose: 200.0 mg/kg/injection, schedule: Q04DX002 (ip), vehicle: other) is 0 of 3 and 1 of 6; the survivor count (T/C endpoint: mean survival time, dose: 400.0 mg/kg/injection, schedule: Q04DX002 (ip), vehicle: other) was 0 of 3 and 2 of 6. The T/C under setting [3] is 86 and 95 % of control [5 of 6 alive].
`C[CH2][Ge]([CH2]C)[CH2]C.C[CH2][Ge]([CH2]C)[CH2]C.C[CH2][Ge]([CH2]C)[O][Ge]([CH2]C)[CH2]C`: the survivor count is, setting by setting: under setting [4], 2 of 6; under setting [5], 1 of 6 and 3 of 10.
`O=C(CCl)NC(=O)NC1=C(Cl)C(=O)c2ccccc2C1=O`: the survivor count by setting is: under setting [2], 0 of 6; (T/C endpoint: mean survival time, dose: 200.0 mg/kg/injection, schedule: Q01DX001 (ip), vehicle: other) 0 of 6; (T/C endpoint: mean survival time, dose: 400.0 mg/kg/injection, schedule: Q01DX001 (ip), vehicle: other) 0 of 6.
With `Nc1nc(N)c2nc(CSc3ccc(C(=O)NC(CCC(=O)O)C(=O)O)cc3)cnc2n1` (centres undefined), the T/C (T/C endpoint: mean survival time, dose: 48.0 mg/kg/injection, schedule: Q01DX009 (ip), vehicle: distilled water + Tween-80) was 130 % of control.
Regarding `C[N+](C)(CC(=O)Nc1ccc(Cl)c(Cl)c1)Cc1ccc(Cl)c(Cl)c1`, the survivor count by setting is: under setting [6], 0 of 6; under setting [7], 0 of 6; under setting [8], 0 of 6.
For `CCCCCCCCCCCCCCCCCC[N+]1(C)CCSCC1`, the survivor count reads like this: (T/C endpoint: mean survival time, dose: 50.0 mg/kg/injection, schedule: Q01DX001 (ip), vehicle: saline with Tween-80) 3 of 6; under setting [6], 5 of 6; under setting [7], 0 of 6; under setting [8], 0 of 6 (2×).
For `Cc1nc(N)nc2ccccc12`, the survivor count (T/C endpoint: mean survival time, dose: 200.0 mg/kg/injection, schedule: Q01DX001 (ip), vehicle: saline) was 0 of 4 and the survivor count (T/C endpoint: mean survival time, dose: 400.0 mg/kg/injection, schedule: Q01DX001 (ip), vehicle: saline) is given as 0 of 4.
Turning to `CN1CCCN(C)C1c1cc(Br)ccc1O`, the survivor count by setting is: under setting [4], 2 of 6; under setting [5], 3 of 6; (T/C endpoint: mean survival time, dose: 400.0 mg/kg/injection, schedule: Q01DX009 (ip), vehicle: saline with Tween-80) 0 of 6.
As for `Cc1cn(C2CC3O[P@@](=S)(Nc4ccccc4)OCC3O2)c(=O)[nH]c1=O` (some centres undefined), the survivor count (T/C endpoint: median survival time, dose: 92.0 mg/kg/injection, schedule: Q01DX005 (ip), vehicle: saline with Tween-80) is given as 5 of 6.
Take `Nc1ncnc2c1ncn2C1OC(COP(=O)(O)O)C(O)C1O` (centres undefined): the T/C runs as follows: (T/C endpoint: mean survival time, dose: 165.0 mg/kg/injection, schedule: Q03HX024 (ip), vehicle: saline) 125 % of control; (T/C endpoint: mean survival time, dose: 250.0 mg/kg/injection, schedule: Q03HX024 (ip), vehicle: saline) 131 and 139 % of control; (T/C endpoint: mean survival time, dose: 375.0 mg/kg/injection, schedule: Q03HX024 (ip), vehicle: saline) 140 % of control; (T/C endpoint: mean survival time, dose: 400.0 mg/kg/injection, schedule: Q01DX009 (ip), vehicle: water) 134 % of control; (T/C endpoint: mean survival time, dose: 565.0 mg/kg/injection, schedule: Q03HX024 (ip), vehicle: saline) 135 % of control; (T/C endpoint: mean survival time, dose: 1600.0 mg/kg/injection, schedule: Q01DX009 (ip), vehicle: saline) 130 % of control. Further, the T/C (T/C endpoint: median survival time, dose: 320.0 mg/kg/injection, schedule: Q01DX009 (ip), vehicle: water) is 125 and 127 % of control.
On to `CCS(=O)(=O)Nc1ccc(Nc2c3ccccc3nc3ccccc23)c(OC)c1`, for which the T/C was 133 % of control (T/C endpoint: mean survival time, dose: 1.25 mg/kg/injection, schedule: Q01DX009 (ip), vehicle: saline); 131 % of control (T/C endpoint: mean survival time, dose: 2.5 mg/kg/injection, schedule: Q01DX009 (ip), vehicle: saline); 137 % of control under setting [1].
On to `CC(=O)C1CCC2C3CCC4=CC(=O)CC4(C)C3CCC12C` (centres undefined), for which the survivor count (T/C endpoint: mean survival time, dose: 400.0 mg/kg/injection, schedule: Q04DX003 (ip), vehicle: saline with Tween-80) was 5 of 6.
Consider `CC(O)CNCCNc1ccc(NCCNCC(C)O)c2c1C(=O)c1c(O)ccc(O)c1C2=O` (centres undefined), for which the T/C is, setting by setting: (T/C endpoint: mean survival time, dose: 1.0 mg/kg/injection, schedule: Q01DX005 (ip), vehicle: water) 125 % of control; (T/C endpoint: mean survival time, dose: 2.0 mg/kg/injection, schedule: Q01DX005 (ip), vehicle: water) 131 % of control; (T/C endpoint: mean survival time, dose: 4.0 mg/kg/injection, schedule: Q01DX005 (ip), vehicle: water) 143 % of control.
Turning to `S=P(N1CC1)(N1CC1)N1CC1.[Cl-].[Cl-].[NH2-].[NH2-].[Pt+4]`, under setting [9], the T/C is 142 % of control and the survivor count is 6 of 6. Further, the T/C (T/C endpoint: mean survival time, dose: 6.25 mg/kg/injection, schedule: Q01DX009 (ip), vehicle: Klucel (hydroxypropylcellulose) (HPC)) was 132 [5 of 6 alive] and 143 % of control.
Turning to `C[Si](C)(C)NP(=O)(Oc1ccc([N+](=O)[O-])cc1)Oc1ccc([N+](=O)[O-])cc1`, the survivor count runs as follows: (T/C endpoint: mean survival time, dose: 250.0 mg/kg/injection, schedule: Q01DX001 (ip), vehicle: other) 0 of 6; (T/C endpoint: mean survival time, dose: 500.0 mg/kg/injection, schedule: Q01DX001 (ip), vehicle: other) 0 of 6.
As to `CC(C)N(C=C(C#N)C#N)C(C)C`, the survivor count (T/C endpoint: mean survival time, dose: 50.0 mg/kg/injection, schedule: Q01DX009 (ip), vehicle: saline with Tween-80) was 1 of 6; the survivor count under setting [6] is on record as 0 of 6; the survivor count under setting [7] is 0 of 6; the survivor count under setting [8] is on record as 0 of 6.
